These are yes or no findings as the source states them, for the method shown. For part of these data: Binding calls can cover weak binding; strength is not graded here.
Assays:
Assay in all cases: two-hybrid; co-transformation of AH109 with bait plasmids (S-HDAg or its deletion mutants) and the prey plasmid hnRNPC(1-108); growth on SD/-Trp/-Leu/-Hist/-Ade/X-α-gal
[1] = biological target: GAL4BD/S-HDAg (1-62) (hepatitis delta virus)
[2] = biological target: GAL4BD/S-HDAg (63-97) (hepatitis delta virus)
[3] = biological target: GAL4BD/S-HDAg (98-195) (hepatitis delta virus)

B1: GAL4AD/hnRNPC(1-108) (domain or fragment, UniProt P07910-2 1-108)
chain: MASNVTNKTDPRSMNSRVFIGNLNTLVVKKSDVEAIFSKYGKIVGCSVHKGFAFVQYVNERNARAAVAGEDGRMIAGQVLDINLAAEPKVNRGKAGVKRSAAEMYGSS
Question: For B1, which binding [1] is on record?
Answer: no binding

Question: What about the binding [2] of the same binder?
Answer: no binding

Question: And the binding [3]?
Answer: binds
